Experimental data published in publication PMC11130212.
Results are given in words; binding and its absence hold for the method and conditions named. In cells and extracts the contact can be indirect. Here binding means that the protein was enriched with, or labelled near, the bait; the list need not be complete.

Chains of the proteins cited; added tags and fusions are not shown.
UniProt P68871: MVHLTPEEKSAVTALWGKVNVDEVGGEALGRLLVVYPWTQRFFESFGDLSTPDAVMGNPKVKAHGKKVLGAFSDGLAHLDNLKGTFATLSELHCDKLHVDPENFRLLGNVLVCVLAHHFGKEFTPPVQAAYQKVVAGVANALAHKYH

Target: hemoglobin subunit beta (HBB) (UniProt P68871)
Assay: affinity purification with mass spectrometry; IP-mass assay in HBB-overexpressing AC16 cells; HBB precipitated alone or with aconitine (AC); silver staining and mass spectrometry

- binding: binds
B1: ABHD5 (protein, UniProt Q8WTS1 1-349)
chain: MAAEEEEVDSADTGERSGWLTGWLPTWCPTSISHLKEAEEKMLKCVPCTYKKEPVRISNGNKIWTLKFSHNISNKTPLVLLHGFGGGLGLWALNFGDLCTNRPVYAFDLLGFGRSSRPRFDSDAEEVENQFVESIEEWRCALGLDKMILLGHNLGGFLAAAYSLKYPSRVNHLILVEPWGFPERPDLADQDRPIPVWIRALGAALTPFNPLAGLRIAGPFGLSLVQRLRPDFKRKYSSMFEDDTVTEYIYHCNVQTPSGETAFKNMTIPYGWAKRPMLQRIGKMHPDIPVSVIFGARSCIDGNSGTSIQSLRPHSYVKTIAILGAGHYVYADQPEEFNQKVKEICDTVD
